{
  "source": "paper PMC10272136",
  "about": "“Molecular mechanisms of Holliday junction branch migration catalyzed by an asymmetric RuvB hexamer” (Nature Communications, 2022)",
  "target": "Thermus thermophilus RuvB (Thermus thermophilus) (UniProt Q5SL87)",
  "assay": "SEC; RuvB alone, without DNA; Superdex 200 10/300 GL Increase, 20 mM Tris-HCl pH 7.5, 150 mM NaCl; both purified",
  "note": "These are yes or no findings as the source states them, for the method shown.",
  "data": [
    {"binder": "Thermus thermophilus RuvB (enzyme, UniProt Q5SL87 1-324, looked up, RuvB, Holliday junction branch migration ATPase (AAA+), Thermus thermophilus; printed MW 35,973; Purified RuvB carried endogenous ADP (native mass spectrometry); It forms the hexamer and dodecamer only in the sample with DNA and ATPγS; also called T. thermophilus RuvB; RuvB protomer; source: E. coli BL21(DE3) RipL, purified (heat step at 55 °C, Ni-NTA, Superdex 200 gel filtration)) MEDLALRPKTLDEYIGQERLKQKLRVYLEAAKARKEPLEHLLLFGPPGLGKTTLAHVIAHELGVNLRVTSGPAIEKPGDLAAILANSLEEGDILFIDEIHRLSRQAEEHLYPAMEDFVMDIVIGQGPAARTIRLELPRFTLIGATTRPGLITAPLLSRFGIVEHLEYYTPEELAQGVMRDARLLGVRITEEAALEIGRRSRGTMRVAKRLFRRVRDFAQVAGEEVITRERALEALAALGLDELGLEKRDREILEVLILRFGGGPVGLATLATALSEDPGTLEEVHEPYLIRQGLLKRTPRGRVATELAYRHLGYPPPVGPLLEP", "values": [
      {"measurement": "binding", "value": "no binding (condition: RuvB alone, without DNA)"}
    ]}
  ]
}
